For three substances, binding results are on record in article PMC5006057.

By UniProt entry, the sequences of proteins in these tests, tags left out. Residues count along the entry.
UniProt O75460, residues 19-977: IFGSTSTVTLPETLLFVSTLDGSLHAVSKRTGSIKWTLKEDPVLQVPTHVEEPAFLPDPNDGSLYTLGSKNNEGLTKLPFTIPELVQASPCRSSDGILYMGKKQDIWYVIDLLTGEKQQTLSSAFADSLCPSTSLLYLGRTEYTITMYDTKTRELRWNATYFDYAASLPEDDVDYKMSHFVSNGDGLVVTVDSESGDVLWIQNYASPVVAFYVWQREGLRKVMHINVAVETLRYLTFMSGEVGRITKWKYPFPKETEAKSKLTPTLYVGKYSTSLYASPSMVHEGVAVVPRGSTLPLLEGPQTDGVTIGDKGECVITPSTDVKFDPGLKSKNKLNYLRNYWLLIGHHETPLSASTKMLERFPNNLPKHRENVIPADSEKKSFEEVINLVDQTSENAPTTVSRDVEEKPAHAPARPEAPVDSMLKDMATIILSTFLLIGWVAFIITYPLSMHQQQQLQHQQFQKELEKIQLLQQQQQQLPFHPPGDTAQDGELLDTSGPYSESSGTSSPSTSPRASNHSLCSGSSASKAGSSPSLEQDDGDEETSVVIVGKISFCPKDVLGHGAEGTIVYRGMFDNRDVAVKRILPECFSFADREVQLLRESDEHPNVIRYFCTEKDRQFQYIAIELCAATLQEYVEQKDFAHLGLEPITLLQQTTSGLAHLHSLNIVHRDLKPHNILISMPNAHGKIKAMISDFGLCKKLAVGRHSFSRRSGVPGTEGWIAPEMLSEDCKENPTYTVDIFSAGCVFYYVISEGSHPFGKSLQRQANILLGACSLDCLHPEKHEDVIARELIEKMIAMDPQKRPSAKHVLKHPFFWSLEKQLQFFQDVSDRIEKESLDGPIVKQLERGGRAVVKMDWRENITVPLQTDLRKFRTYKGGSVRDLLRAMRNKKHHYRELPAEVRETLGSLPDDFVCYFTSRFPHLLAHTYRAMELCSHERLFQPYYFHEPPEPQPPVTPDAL
UniProt P55061: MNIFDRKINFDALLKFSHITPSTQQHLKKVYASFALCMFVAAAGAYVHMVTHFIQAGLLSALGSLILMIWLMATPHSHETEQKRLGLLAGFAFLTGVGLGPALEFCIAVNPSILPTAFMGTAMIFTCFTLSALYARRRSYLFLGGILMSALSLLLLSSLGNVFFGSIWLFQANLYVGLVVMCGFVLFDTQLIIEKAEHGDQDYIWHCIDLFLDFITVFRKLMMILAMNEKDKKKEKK
UniProt P05181: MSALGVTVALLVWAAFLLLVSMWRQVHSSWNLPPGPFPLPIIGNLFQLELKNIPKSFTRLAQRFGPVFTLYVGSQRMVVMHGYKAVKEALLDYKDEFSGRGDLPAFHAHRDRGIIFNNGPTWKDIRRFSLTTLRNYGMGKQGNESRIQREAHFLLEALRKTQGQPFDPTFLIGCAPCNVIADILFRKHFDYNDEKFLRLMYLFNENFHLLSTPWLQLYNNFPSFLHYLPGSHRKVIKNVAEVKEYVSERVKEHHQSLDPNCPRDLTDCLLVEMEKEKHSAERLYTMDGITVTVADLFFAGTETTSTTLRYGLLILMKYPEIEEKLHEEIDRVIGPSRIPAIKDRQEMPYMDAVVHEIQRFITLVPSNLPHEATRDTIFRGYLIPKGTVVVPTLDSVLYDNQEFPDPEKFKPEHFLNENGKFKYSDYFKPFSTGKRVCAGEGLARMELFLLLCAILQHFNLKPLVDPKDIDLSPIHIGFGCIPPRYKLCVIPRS
UniProt Q05421: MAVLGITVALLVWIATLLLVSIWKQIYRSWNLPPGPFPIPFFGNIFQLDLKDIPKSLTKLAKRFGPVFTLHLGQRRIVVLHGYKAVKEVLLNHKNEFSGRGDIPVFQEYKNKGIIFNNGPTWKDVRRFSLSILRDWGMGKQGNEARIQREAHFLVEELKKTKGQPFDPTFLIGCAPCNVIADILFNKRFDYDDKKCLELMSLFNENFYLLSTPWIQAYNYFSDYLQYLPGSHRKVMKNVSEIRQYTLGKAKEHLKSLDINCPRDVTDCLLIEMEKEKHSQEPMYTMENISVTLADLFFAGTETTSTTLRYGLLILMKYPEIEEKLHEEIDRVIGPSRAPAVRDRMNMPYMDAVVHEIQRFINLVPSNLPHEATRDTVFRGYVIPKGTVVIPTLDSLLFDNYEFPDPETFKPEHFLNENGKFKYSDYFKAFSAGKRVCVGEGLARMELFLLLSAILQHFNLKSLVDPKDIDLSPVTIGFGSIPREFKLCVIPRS

The target in assay [1] is T1, NADPH-cytochrome CYP reductase (CPR), HepG2 cells (human (endogenous in HepG2)) (UniProt P16435).
T1 sequence: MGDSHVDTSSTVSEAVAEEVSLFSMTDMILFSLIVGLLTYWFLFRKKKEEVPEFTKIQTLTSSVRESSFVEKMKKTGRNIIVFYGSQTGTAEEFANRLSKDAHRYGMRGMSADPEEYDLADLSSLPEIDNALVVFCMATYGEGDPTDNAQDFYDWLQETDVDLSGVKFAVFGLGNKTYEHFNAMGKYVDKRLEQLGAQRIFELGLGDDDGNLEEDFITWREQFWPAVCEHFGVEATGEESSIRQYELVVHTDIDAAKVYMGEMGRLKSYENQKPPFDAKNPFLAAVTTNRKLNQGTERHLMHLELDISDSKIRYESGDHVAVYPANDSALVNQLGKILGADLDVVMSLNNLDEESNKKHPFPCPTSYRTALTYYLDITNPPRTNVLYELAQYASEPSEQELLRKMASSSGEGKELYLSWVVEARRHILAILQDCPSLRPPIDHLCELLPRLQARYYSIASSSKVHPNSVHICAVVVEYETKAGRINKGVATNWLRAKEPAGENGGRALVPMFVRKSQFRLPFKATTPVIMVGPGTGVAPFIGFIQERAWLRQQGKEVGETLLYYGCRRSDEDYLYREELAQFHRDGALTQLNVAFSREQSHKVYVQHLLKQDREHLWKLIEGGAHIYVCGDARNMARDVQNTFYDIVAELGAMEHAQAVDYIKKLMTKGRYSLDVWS
Put plainly: co-IP; Fig. S11: BI-1 with CPR and with IRE-1α, without treatment and over a time course of free fatty acid stress; cells and precipitating antibody not given.

Assay [2] concerns the target IRE-1α (UniProt O75460). The description is as above.
Assay [3] concerns the target IRE-1α (UniProt O75460). Put plainly: co-IP; Fig. S11: after long free fatty acid (palmitate) treatment (more than 6 hours; 12-hour time point).
Assay [4] has as its target T1, NADPH-cytochrome CYP reductase (CPR), HepG2 cells (human (endogenous in HepG2)). The experiment in a line: co-IP; lysates of HepG2 Neo and BI-1 cells treated with 250 uM palmitate for indicated periods; protein A/G-Sepharose; which protein was precipitated is not told.
The target of assay [5] is T2, NADPH-cytochrome CYP reductase (CPR), mouse liver (mouse (endogenous in liver)) (UniProt P37040).
T2 sequence: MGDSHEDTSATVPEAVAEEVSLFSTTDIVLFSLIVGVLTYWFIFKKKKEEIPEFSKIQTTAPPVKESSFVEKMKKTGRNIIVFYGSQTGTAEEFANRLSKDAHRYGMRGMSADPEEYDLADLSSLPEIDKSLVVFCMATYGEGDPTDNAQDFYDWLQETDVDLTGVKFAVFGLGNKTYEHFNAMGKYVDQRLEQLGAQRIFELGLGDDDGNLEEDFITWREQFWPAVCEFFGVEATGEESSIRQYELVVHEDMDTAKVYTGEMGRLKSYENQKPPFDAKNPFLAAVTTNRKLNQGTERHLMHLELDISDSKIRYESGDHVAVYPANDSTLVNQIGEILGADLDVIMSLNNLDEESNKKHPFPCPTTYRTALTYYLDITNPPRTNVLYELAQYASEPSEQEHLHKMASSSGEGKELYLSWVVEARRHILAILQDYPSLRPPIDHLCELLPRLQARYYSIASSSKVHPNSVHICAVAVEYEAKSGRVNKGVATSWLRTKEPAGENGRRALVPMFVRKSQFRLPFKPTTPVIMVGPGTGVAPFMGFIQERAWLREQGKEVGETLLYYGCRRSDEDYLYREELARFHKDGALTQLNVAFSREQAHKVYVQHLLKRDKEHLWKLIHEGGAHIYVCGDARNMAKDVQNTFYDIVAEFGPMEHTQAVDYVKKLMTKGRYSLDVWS
Put plainly: co-IP; liver lysates of high-fat diet-fed BI-1 wild-type and BI-1 knock-out mice, and of normal or high-fat diet-fed mice injected with GFP or BI-1 adenovirus; protein A/G-Sepharose; which protein was precipitated is not told.

No constants are given. Whether binding was seen depends on the method and setting. Binding seen in cells or lysates may run through a third protein. Some binding calls cover weakened binding; strength is not graded here.

On to “Bax inhibitor-1 (BI-1), HA-tagged, stably expressed in HepG2 (from UniProt P55061 1-237)”, for which the binding result in assay [1] was “binds”; in assay [2], “binds”; in assay [3] it was “binds weakly”.
Take “cytochrome p450 2E1 (CYP2E1), HepG2 cells (from UniProt P05181 1-493) (enzyme)”: in assay [4], the binding entry is recorded as “binds”.
“cytochrome p450 2E1 (CYP2E1), mouse liver (from UniProt Q05421 1-493) (enzyme)”: in assay [5], the binding result is listed as “binds”.
